Data from ChEMBL document CHEMBL2040793, “Thieno[3,2-c]pyran-4-one based novel small molecules: their synthesis, crystal structure analysis and in vitro evaluation as potential anticancer agents” (Bioorg Med Chem Lett, 2012).

Test system: HepG2
Assay: Cytotoxicity against human HepG2 cells after 24 hrs by MTT assay
Type: functional, cell-based
Conditions: HepG2, 24 h

SMILES: COc1cccc2c1C(=O)c1c(O)c3c(c(O)c1C2=O)C[C@@](O)(C(=O)CO)C[C@@H]3O[C@H]1C[C@H](N)[C@H](O)[C@H](C)O1 [DOXORUBICIN]
- IC50: 5 µM
